In paper PMC3406103:
No constants are given. Whether binding was seen depends on the method and setting. Binding seen in cells or lysates may run through a third protein. Some entries that bind do so weakly or less than the wild type.

Sequences of proteins named here, by UniProt entry; tags and fusion partners are left off. A change or cut given only in a name is not applied to a line headed by its entry.
UniProt P49715: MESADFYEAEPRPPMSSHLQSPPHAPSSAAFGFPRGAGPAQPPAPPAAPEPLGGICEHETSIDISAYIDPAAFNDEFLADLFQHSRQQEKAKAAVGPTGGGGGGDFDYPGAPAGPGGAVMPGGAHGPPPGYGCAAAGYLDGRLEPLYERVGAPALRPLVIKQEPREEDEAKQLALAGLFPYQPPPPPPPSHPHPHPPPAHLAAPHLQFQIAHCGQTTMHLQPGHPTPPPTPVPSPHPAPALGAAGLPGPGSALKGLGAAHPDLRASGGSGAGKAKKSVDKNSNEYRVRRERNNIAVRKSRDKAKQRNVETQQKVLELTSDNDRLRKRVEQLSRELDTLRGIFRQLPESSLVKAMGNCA
UniProt P17676: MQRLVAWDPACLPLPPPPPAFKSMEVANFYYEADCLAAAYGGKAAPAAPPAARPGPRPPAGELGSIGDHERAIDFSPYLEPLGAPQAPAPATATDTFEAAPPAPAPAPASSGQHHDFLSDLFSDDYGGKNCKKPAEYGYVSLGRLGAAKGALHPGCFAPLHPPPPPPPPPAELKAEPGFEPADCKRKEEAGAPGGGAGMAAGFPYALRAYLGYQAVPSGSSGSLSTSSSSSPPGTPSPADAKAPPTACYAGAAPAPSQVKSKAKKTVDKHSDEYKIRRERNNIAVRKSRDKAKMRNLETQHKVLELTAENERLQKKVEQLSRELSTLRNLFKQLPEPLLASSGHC

Experiments:
[1] = biological target: GST-HPV8 E7 (in pGEX-2T) (human papillomavirus type 8) (UniProt P06430); test: pull-down; data not shown; GST-HPV8 E7 or GST incubated with cellular extracts of C33A cells transfected with C/EBPβ and precipitated by glutathione Sepharose 4B; only the target purified
[2] = biological target: Flag-HPV8 E7Δ1-37 (human papillomavirus type 8) (UniProt P06430); test: co-IP; C33A cells co-transfected with Flag-HPV8 E7 or deletion mutants and C/EBPβ; 800 µl extract precipitated with Flag M2 agarose, washed with PBS with 0.5 M NaCl, 0.1% IGEPAL CA-630, 1 mM EDTA pH 8.0; Western blot with anti-C/EBPβ
[3] = biological target: Flag-HPV8 E7Δ79-83 (human papillomavirus type 8) (UniProt P06430); test: as above
[4] = biological target: Flag-tagged HPV8 E7 (pCMV-Flag2-HPV8 E7) (human papillomavirus type 8) (UniProt P06430); test: as above
[5] = biological target: Flag-HPV8 E7Δ1-15 (human papillomavirus type 8) (UniProt P06430); test: as above
[6] = biological target: GST-C/EBPα fusion protein (UniProt P49715); test: pull-down; GST fusion proteins incubated with in vitro translated 35S-labelled HPV8 E7 and precipitated by glutathione Sepharose 4B; SDS-PAGE and autoradiography; only the target purified
[7] = biological target: GST-C/EBPβ fusion protein (human (from the printed accession)) (UniProt P17676); test: as above

Measured: binding

C/EBPβ expressed from the C/EBPβ expression vector (pcDNA3.1+) in C33A cells (from UniProt P17676-1 1-345)
not listed: [6] | [7]
binds: all other assays above

HPV8 E7 protein, in vitro translated and 35S-labelled (from UniProt P06430 1-103)
binds: [6] | [7]
